Source: article doi:10.1101/134007
No constants are given. Whether binding was seen depends on the method and setting. In cells and extracts the contact can be indirect. Binding calls can cover weak binding; strength is not graded here. Where a sequence is shown, tags or fusion partners need not be part of it.

Biological target: T1, Human Myc-DHHC6 (WT) (human) (UniProt Q9H6R6)
T1 sequence: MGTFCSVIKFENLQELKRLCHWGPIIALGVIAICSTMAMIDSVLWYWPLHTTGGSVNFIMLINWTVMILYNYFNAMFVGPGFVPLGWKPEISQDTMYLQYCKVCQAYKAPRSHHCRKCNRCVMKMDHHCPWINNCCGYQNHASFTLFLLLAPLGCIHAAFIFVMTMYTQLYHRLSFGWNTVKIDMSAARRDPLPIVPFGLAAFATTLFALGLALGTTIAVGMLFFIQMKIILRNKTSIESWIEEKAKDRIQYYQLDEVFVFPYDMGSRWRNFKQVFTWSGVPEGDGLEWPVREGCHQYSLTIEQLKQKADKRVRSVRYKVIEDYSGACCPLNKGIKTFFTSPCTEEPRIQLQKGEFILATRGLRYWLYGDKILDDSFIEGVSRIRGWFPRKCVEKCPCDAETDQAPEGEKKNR
Test: co-IP

binding: binds
Substance: Human FLAG-DHHC16 (enzyme)
